PubChem BioAssay AID743454 – Peter MacCallum Cancer Centre – 2014
In all, the deposit lists about 18,000 reagents; this is an unselected part. Over the whole deposit, 450 (2.5%) were called active. 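Single biological run; no consistent viability z cut-off exists, so the class columns, not z-scores, define the calls.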 Reagent sequences are not shown.

Assay: 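Knock-downs lowering viability or raising caspase 3/7 activity in vorinostat-treated resistant cells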 (primary screen)
System: human HCT116-VR colon cancer cells, selected for vorinostat resistance
Knock-down reagent: siRNA pool against human genes, 40 nM siRNA pool
Timing: vorinostat for 24 h, read-out about 72 h after transfection
Treatment: vorinostat at 2.5 µM final
Measurement: 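Cell viability by CellTiter-Fluor and caspase 3/7 activity by luminescence, each scaled to mock wells per plate, duplicates averaged, then robust z-scored over all plates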
Direction: viability robust z-score: higher = more viable cells than screen typical; caspase robust z-score: higher = more caspase 3/7 activity than screen typical
Active means: 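Hits are knock-downs in viability class RV1/RV2 or caspase class CA1/CA2, excluding ones that killed cells in the no-drug cell-count arm; hits then retested with single siRNAs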

| gene | viability hit class | caspase hit class | viability robust z-score | caspase robust z-score | outcome |
| --- | --- | --- | --- | --- | --- |
| VARS1 (GeneID 7407) | no change | no change | -2.59 | 3.94 | inactive |
| NQO2 (GeneID 4835) | no change | no change | -0.88 | 0.18 | inactive |
| ATP6V0E2 (GeneID 155066) | no change | no change | -0.43 | 3 | inactive |
| KRTAP23-1 (GeneID 337963) | no change | no change | -0.4 | 0.52 | inactive |
| TCF3 (GeneID 6929) | no change | no change | -1.31 | 2.38 | inactive |
| CAVIN3 (GeneID 112464) | no change | no change | -0.25 | 3.89 | inactive |
| INPP4B (GeneID 8821) | no change | no change | -1.19 | 2.4 | inactive |
| TULP1 (GeneID 7287) | no change | no change | 1.58 | 0.52 | inactive |
| BRPF1 (GeneID 7862) | no change | no change | 0.28 | -1.09 | inactive |
| F11 (GeneID 2160) | no change | no change | 0.43 | 1.02 | inactive |
| TMEM14A (GeneID 28978) | no change | no change | 1.42 | -0.18 | inactive |
| LMBRD1 (GeneID 55788) | no change | no change | 0.4 | -0.1 | inactive |
| GNB3 (GeneID 2784) | no change | no change | 1.04 | -0.76 | inactive |

The list goes on; the last 2 above are carried over.
| gene | viability hit class | caspase hit class | viability robust z-score | caspase robust z-score | outcome |
| --- | --- | --- | --- | --- | --- |
| LMBRD1 (GeneID 55788) | no change | no change | 0.4 | -0.1 | inactive |
| GNB3 (GeneID 2784) | no change | no change | 1.04 | -0.76 | inactive |
| FAM24B (GeneID 196792) | no change | no change | -0.24 | 1.53 | inactive |
| KCNIP2 (GeneID 30819) | no change | no change | 0.08 | 1 | inactive |
| PGAP4 (GeneID 84302) | no change | no change | -0.78 | -0.18 | inactive |
| FUBP1 (GeneID 8880) | no change | no change | 0.24 | -0.16 | inactive |
| CCNK (GeneID 8812) | no change | CA2 (caspase activation) | -2.45 | 7.16 | active |
| ELOVL4 (GeneID 6785) | no change | no change | -2.15 | -0.26 | inactive |
| TBCK (GeneID 93627) | no change | no change | -0.29 | -0.78 | inactive |
| CLDN18 (GeneID 51208) | no change | no change | 0.76 | -0.55 | inactive |
| AGO4 (GeneID 192670) | no change | no change | -0.28 | 1.4 | inactive |
| ACSM5 (GeneID 54988) | no change | no change | 1.05 | -0.34 | inactive |
